B1: hB5-2-1 (antibody, human IgG1, kappa, V domains shown)
VH: EVQLVESGGGLVQPGGSLRLSCAASGFTFRNYAMSWVRQAPGKGLEWVAEISTGGSYTYYPDTVTGRFTISRDNAKNSLYLQMNSLRAEDTAVYYCAFYYYGSSYSMDYWGQGTLVTVSS
VL: DIQMTQSPSSLSASVGDRVTISCRASQDISNYLNWYQQKPGKAPKLLIYHTSILHSGVPSRFSGSGSGTDYSLTISSLQPEDIATYFCQQGDTVPLTFGGGTKVEIKR
B2: hB5-2-13 (antibody, human IgG1, kappa, V domains shown)
VH: EVQLVESGGGVVQPGRSLRLSCAASGFTFRNYAMSWVRQAPGKGLEWVAEISTGGSYTYYPDTVTGRFTISRDNSKNTLYLQMSSLRAEDTAVYYCAFYYYGSSYSMDYWGQGTLVTVSS
VL: DIQMTQSPSSLSASVGDRVTISCRASQDISNYLNWYQQKPGKAPKLLIYHTSILHSGVPSRFSGSGSGTDYSLTISSLQPEDIATYFCQQGDTVPLTFGGGTKVEIKR
B3: hB5-2-8 (antibody, human IgG1, kappa, V domains shown)
VH: EVQLVESGGGLVQPGGSLRLSCAASGFTFRNYAMSWVRQAPGKGLEWVAEISTGGSYTYYPDTVTGRFTISRDNSKNTLYLQMNSLRAEDTAVYYCAFYYYGSSYSMDYWGQGTLVTVSS
VL: DIQMTQSPSSLSASVGDRVTISCRASQDISNYLNWYQQKPGKAPKLLIYHTSILHSGVPSRFSGSGSGTDYSLTISSLQPEDFATYFCQQGDTVPLTFGGGTKVEIKR
B4: hB5-2-16 (antibody, human IgG1, kappa, V domains shown)
VH: EVQLVESGGGVVQPGRSLRLSCAASGFTFRNYAMSWVRQAPGKGLEWVAEISTGGSYTYYPDTVTGRFTISRDNSKNTLYLQMSSLRAEDTAVYYCAFYYYGSSYSMDYWGQGTLVTVSS
VL: DIQMTQSPSSLSASVGDRVTISCRASQDISNYLNWYQQKPGKAPKLLIYHTSILHSGVPSRFSGSGSGTDYSLTISSLQPEDFATYFCQQGDTVPLTFGGGTKVEIKR
B5: hB5-2-4 (antibody, human IgG1, kappa, V domains shown)
VH: EVQLVESGGGLVQPGGSLRLSCAASGFTFRNYAMSWVRQAPGKGLEWVAEISTGGSYTYYPDTVTGRFTISRDNAKNSLYLQMNSLRAEDTAVYYCAFYYYGSSYSMDYWGQGTLVTVSS
VL: DIQMTQSPSSLSASVGDRVTISCRASQDISNYLNWYQQKPGKAPKLLIYHTSILHSGVPSRFSGSGSGTDYSLTISSLQPEDFATYFCQQGDTVPLTFGGGTKVEIKR
B6: hB5-2-15 (antibody, human IgG1, kappa, V domains shown)
VH: EVQLVESGGGVVQPGRSLRLSCAASGFTFRNYAMSWVRQAPGKGLEWVAEISTGGSYTYYPDTVTGRFTISRDNSKNTLYLQMSSLRAEDTAVYYCAFYYYGSSYSMDYWGQGTLVTVSS
VL: DIQMTQTTSSLSASVGDRVTISCRASQDISNYLNWFQQKPGKAPKSLIYHTSILHSGVPSKFSGSGSGTDYSLTISSLQPEDFATYFCQQGDTVPLTFGGGTKVEIKR
B7: hB5-2-14 (antibody, human IgG1, kappa, V domains shown)
VH: EVQLVESGGGVVQPGRSLRLSCAASGFTFRNYAMSWVRQAPGKGLEWVAEISTGGSYTYYPDTVTGRFTISRDNSKNTLYLQMSSLRAEDTAVYYCAFYYYGSSYSMDYWGQGTLVTVSS
VL: DIQMTQSPSSLSASVGDRVTISCRASQDISNYLNWYQQKPGKVPKLLIYHTSILHSGVPSRFSGSGSGTDYSLTISSLQPEDVATYFCQQGDTVPLTFGGGTKVEIKR
B8: hB5-2-3 (antibody, human IgG1, kappa, V domains shown)
VH: EVQLVESGGGLVQPGGSLRLSCAASGFTFRNYAMSWVRQAPGKGLEWVAEISTGGSYTYYPDTVTGRFTISRDNAKNSLYLQMNSLRAEDTAVYYCAFYYYGSSYSMDYWGQGTLVTVSS
VL: DIQMTQTTSSLSASVGDRVTISCRASQDISNYLNWFQQKPGKAPKSLIYHTSILHSGVPSKFSGSGSGTDYSLTISSLQPEDFATYFCQQGDTVPLTFGGGTKVEIKR
B9: hB5-2-2 (antibody, human IgG1, kappa, V domains shown)
VH: EVQLVESGGGLVQPGGSLRLSCAASGFTFRNYAMSWVRQAPGKGLEWVAEISTGGSYTYYPDTVTGRFTISRDNAKNSLYLQMNSLRAEDTAVYYCAFYYYGSSYSMDYWGQGTLVTVSS
VL: DIQMTQSPSSLSASVGDRVTISCRASQDISNYLNWYQQKPGKVPKLLIYHTSILHSGVPSRFSGSGSGTDYSLTISSLQPEDVATYFCQQGDTVPLTFGGGTKVEIKR
B10: hB5-2-6 (antibody, human IgG1, kappa, V domains shown)
VH: EVQLVESGGGLVQPGGSLRLSCAASGFTFRNYAMSWVRQAPGKGLEWVAEISTGGSYTYYPDTVTGRFTISRDNSKNTLYLQMNSLRAEDTAVYYCAFYYYGSSYSMDYWGQGTLVTVSS
VL: DIQMTQSPSSLSASVGDRVTISCRASQDISNYLNWYQQKPGKVPKLLIYHTSILHSGVPSRFSGSGSGTDYSLTISSLQPEDVATYFCQQGDTVPLTFGGGTKVEIKR
B11: hB5-2-7 (antibody, human IgG1, kappa, V domains shown)
VH: EVQLVESGGGLVQPGGSLRLSCAASGFTFRNYAMSWVRQAPGKGLEWVAEISTGGSYTYYPDTVTGRFTISRDNSKNTLYLQMNSLRAEDTAVYYCAFYYYGSSYSMDYWGQGTLVTVSS
VL: DIQMTQTTSSLSASVGDRVTISCRASQDISNYLNWFQQKPGKAPKSLIYHTSILHSGVPSKFSGSGSGTDYSLTISSLQPEDFATYFCQQGDTVPLTFGGGTKVEIKR
B12: hB5-2-5 (antibody, human IgG1, kappa, V domains shown)
VH: EVQLVESGGGLVQPGGSLRLSCAASGFTFRNYAMSWVRQAPGKGLEWVAEISTGGSYTYYPDTVTGRFTISRDNSKNTLYLQMNSLRAEDTAVYYCAFYYYGSSYSMDYWGQGTLVTVSS
VL: DIQMTQSPSSLSASVGDRVTISCRASQDISNYLNWYQQKPGKAPKLLIYHTSILHSGVPSRFSGSGSGTDYSLTISSLQPEDIATYFCQQGDTVPLTFGGGTKVEIKR

Chains of the proteins cited; added tags and fusions are not shown. Residues count along the entry.
UniProt Q13641, residues 32-355: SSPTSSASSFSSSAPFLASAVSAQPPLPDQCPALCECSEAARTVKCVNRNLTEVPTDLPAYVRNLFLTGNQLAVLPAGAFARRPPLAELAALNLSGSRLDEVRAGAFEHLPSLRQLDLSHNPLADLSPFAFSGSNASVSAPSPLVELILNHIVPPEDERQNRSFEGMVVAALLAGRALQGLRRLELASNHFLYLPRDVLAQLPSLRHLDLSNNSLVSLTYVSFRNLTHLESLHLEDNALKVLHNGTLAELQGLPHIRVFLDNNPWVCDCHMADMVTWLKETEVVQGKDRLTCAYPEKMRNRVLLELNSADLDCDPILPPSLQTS

These are yes or no findings as the source states them, for the method shown. Some binding calls cover weakened binding; strength is not graded here.

The target in this assay is TPBG-His (UniProt Q13641). The assay can be described thus: SPR (Biacore 8K), single concentration.
Turning to B1, the binding result was “binds”.

In the case of B2, the binding result is on record as “binds”.

Take B3: the binding result is “binds”.

For B4, the binding entry is listed as “binds”.

Regarding B5, the binding result was “binds”.

On to B6, for which the binding entry is reported as “binds”.

Consider B7, for which the binding entry is “binds”.

Take B8: the binding entry was “binds”.

Turning to B9, the binding result is given as “binds”.

As to B10, the binding result is “binds”.

Consider B11, for which the binding result was “binds”.

As to B12, the binding entry is “binds”.
